According to US7964629B2, “Inhibitors of isoprenylcysteine carboxyl methyltransferase” (Duke Universtiy, priority 2005, dated 2011):
Read-outs that look alike come from different tables or passages of the source. The structures given here were assigned with low confidence; some may be wrong.

By UniProt entry, the sequences of proteins in these tests, tags left out.
UniProt O60725, whole entry: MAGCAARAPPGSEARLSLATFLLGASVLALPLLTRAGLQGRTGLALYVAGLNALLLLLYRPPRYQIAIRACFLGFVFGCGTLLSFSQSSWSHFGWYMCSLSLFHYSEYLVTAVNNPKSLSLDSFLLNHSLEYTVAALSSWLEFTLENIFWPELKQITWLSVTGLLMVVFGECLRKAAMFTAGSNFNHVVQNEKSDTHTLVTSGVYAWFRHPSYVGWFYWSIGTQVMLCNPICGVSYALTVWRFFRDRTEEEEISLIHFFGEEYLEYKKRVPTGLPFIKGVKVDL

Target: recombinant human Icmt (Homo sapiens, UniProt O60725)
Assay: Icmt assay: [3H]methyl incorporation from [3H]AdoMet into BFC
Assay type: biochemical

## CCCCCCCCn1cc(CC(N)=O)c2cc(-c3cccc(C)c3)ccc21 [cysmethynil, 2-[5-(3-methylphenyl)-1-octyl-1H-indol-3-yl]acetamide]
Table 2, no pre-incubation
  IC50: 3000 nM
read-out: IC50 pre-inc, Table 2, pre-incubation of enzyme with inhibitor
  IC50: < 300 nM
